Experimental data: the supplement of paper PMC3334620
The full ranking holds about 33,000 sequences; the median of “E-score (-0.5 to 0.5)” is about -0.0014, and the highest 2% start at about 0.25. The list shows a part of the results.

Molecular target: T1, Cad1 (UniProt P24813)
T1 sequence: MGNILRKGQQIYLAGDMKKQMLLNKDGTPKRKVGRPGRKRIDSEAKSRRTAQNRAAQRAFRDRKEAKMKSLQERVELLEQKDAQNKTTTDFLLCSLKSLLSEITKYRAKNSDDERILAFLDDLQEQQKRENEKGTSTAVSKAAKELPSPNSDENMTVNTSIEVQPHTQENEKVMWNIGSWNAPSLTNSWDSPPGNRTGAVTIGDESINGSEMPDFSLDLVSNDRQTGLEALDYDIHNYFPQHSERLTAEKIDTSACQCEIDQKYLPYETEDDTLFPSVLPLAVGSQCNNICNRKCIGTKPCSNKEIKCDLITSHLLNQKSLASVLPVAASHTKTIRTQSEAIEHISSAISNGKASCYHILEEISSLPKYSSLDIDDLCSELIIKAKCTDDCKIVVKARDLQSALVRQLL
Assay: PBM E-score (8-mer binding enrichment) (E-score (-0.5 to 0.5)); higher = stronger / more preferred TF binding
Settings: protein concentration: 100 nM; construct: GST-full length
Procedure, shortened: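 Bound GST-tagged yeast transcription factors, applied at about 100-200 nM to double-stranded universal all-10-mer Agilent arrays, were detected with fluorescent anti-GST. Scans were normalised with masliner. A modified Wilcoxon-Mann-Whitney statistic, the E-score, was assigned to each ungapped eight-base word pooled with its reverse complement by the Universal PBM Analysis Suite.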

Row | Sequence | PBM E-score
1 | CTTCGGAC | 0.132
2 | AGACAAGC | -0.0191
3 | TGATACCA | 0.0568
4 | ATCGCCCA | -0.176
5 | CTGACGTC | 0.208
6 | AATTGGGT | 0.219
7 | GAGAGATC | 0.0748
8 | TCGATGCA | 0.0348
9 | AAATCGAC | 0.12
10 | AAACGCTC | -0.0632
11 | CGTAGCAC | 0.0419
12 | GGATTGAA | 0.194
13 | AGGCGTTC | -0.303
14 | ATTCGAGC | -0.0299
15 | GTATGAAA | 0.0978
16 | TATAGACA | 0.0717
17 | GATGAGGA | 0.00167
18 | AAGTTAGT | 0.0879
19 | ACAGGGTA | -0.0232
20 | AAGTAACG | -0.0002
21 | GGGGGGGA | -0.464
22 | GGGGGTAA | -0.395

Row | Sequence | PBM E-score
23 | ATGGATAG | -0.088
24 | ATAGACAA | 0.136
25 | AGTTGCGC | 0.0854
26 | GAATACGA | -0.0473
27 | TCACATGA | -0.0263
28 | GGGGACAA | -0.143
29 | CACGAGTA | 0.0853
30 | AACTACTG | 0.0241
31 | CCCCTGCC | -0.34
32 | AACAGGGT | -0.225
33 | ACCAAAAT | 0.0849
34 | CATGCATC | 0.148
35 | CGATAACG | -0.0126
36 | AGGCCAGC | -0.122
37 | GATAACGC | 0.0875
38 | CAGATACA | 0.229
39 | ACCCCGGC | -0.245
40 | ACCCCCCC | -0.411
41 | CTCAAGTA | -0.0446
42 | TAGGTACA | -0.17
43 | CAACATCA | 0.115
44 | CCTGCGGA | 0.129

Row | Sequence | PBM E-score
45 | GTCTTTGA | -0.00364
46 | CCACGATC | 0.155
47 | ACGTTTAT | 0.156
48 | AGCAGACG | -0.03
49 | CGCTGCCA | -0.152
50 | CCAGAGAG | -0.239
51 | CGCTGGCC | -0.169
52 | GTAGCCAA | -0.102
53 | AAACCGTT | 0.027
54 | GTAGGCGA | -0.212
55 | CGACAGTC | -0.12
56 | AGTATAAG | 0.0523
57 | CGAGAGTA | 0.106
58 | AGCAGCTG | 0.0375
59 | CAGTGTGC | -0.137
60 | ATAAGATA | 0.264
61 | AACTCGAT | 0.169
62 | AAGACCAC | -0.154
63 | CTCATTGA | -0.22
64 | AGGATGGC | -0.107
65 | CAGAGTGA | -0.0276
66 | ACACTCCG | -0.0219

Row | Sequence | PBM E-score
67 | ATTGGAGA | 0.133
68 | CGGTGCGA | -0.0305
69 | AATTGGAA | 0.0492
70 | CGATGCCC | -0.231
71 | ACAACTCA | 0.106
72 | CCAGACGG | -0.127
73 | AGAGGTTA | 0.0298
74 | AATTCGAT | 0.219
75 | ACGTGGGA | -0.0878
76 | GTACTCAA | -0.0961
77 | AGGCTATC | -0.0241
78 | AATAGGAA | 0.0691
79 | CCGCTATA | -0.158
80 | TGCCGAAA | 0.0985
81 | AATCACCG | 0.185
82 | ACCTAGCC | -0.168
83 | AGGCTGTG | -0.102
84 | AACCCGGA | -0.00506
85 | ATGCCATC | 0.0117
86 | CCGGTGCC | -0.167

Look-ups from the list:
Under PBM E-score, AAGTTAGT has 0.0879
Under PBM E-score, AATAGGAA has 0.0691
Under PBM E-score, AAACGCTC has -0.0632
Under PBM E-score, GGATTGAA has 0.194
Under PBM E-score, ACAACTCA has 0.106
